According to PMC5882645, “NMR Structure, Dynamics and Interactions of the Integrin β2 Cytoplasmic Tail with Filamin Domain IgFLNa21” (Scientific Reports, 2018):
These are yes or no findings as the source states them, for the method shown. Some results given as binding are weak or reduced against the parent protein; the word gives no strength.

Molecular target: T1, IgFLNa21 domain of filamin A (Gly2236-Ser2329) (UniProt P21333 2236-2329)
T1 construct: filamin A, Ig-like repeat 21 (IgFLNa21), residues Gly2236-Ser2329; The same range also stands as the C-terminal part of the hybrid chain m5 (cloned in pET14b); the rows on the hybrid use m1 for this domain; also called IgFLNa21 filamin; wild-type IgFLNa21; source: E. coli rosetta, synthetic gene in pET24a, 15N/13C-labelled, purified (Ni-NTA, size-exclusion chromatography)
T1 sequence (looked up): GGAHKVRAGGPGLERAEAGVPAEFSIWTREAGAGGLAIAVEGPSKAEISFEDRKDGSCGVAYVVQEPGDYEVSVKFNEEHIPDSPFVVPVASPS
Experiment: NMR titration; 15N-1H HSQC of IgFLNa21 (100 μM) with sequential additions of peptide at 1:0, 1:1, 1:2 and 1:3 ratios; 298 K; 25 mM sodium phosphate, 5 mM NaCl, 2 mM DTT, 10% D2O, pH 6.5; both purified

Question: KALIHLSDLREYRRFEKEKLKSQWNND [β2-CT MP peptide (membrane proximal fragment of integrin β2 CT, K724-D750)] was tested. Which binding did it give?
Answer: binds weakly
